Measurements published in doi:10.1101/2025.10.11.681831.

Target: T1, YAF9A, 3XFLAG-tagged (pYAF9A::YAF9A::3XFLAG in yaf9a-1, ins1) (Arabidopsis) (UniProt Q9FH40)
T1 sequence: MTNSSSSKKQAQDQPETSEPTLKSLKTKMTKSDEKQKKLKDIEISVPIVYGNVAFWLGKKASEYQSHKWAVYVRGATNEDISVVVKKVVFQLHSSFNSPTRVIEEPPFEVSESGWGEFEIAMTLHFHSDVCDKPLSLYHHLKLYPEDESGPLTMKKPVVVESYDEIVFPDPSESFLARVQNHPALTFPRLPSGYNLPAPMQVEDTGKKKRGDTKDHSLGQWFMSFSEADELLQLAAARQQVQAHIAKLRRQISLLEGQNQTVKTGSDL
Assay: affinity purification with mass spectrometry

binding: no binding
Substance: YAF9B (endogenous, in pYAF9A:YAF9A:3XFLAG/yaf9a-1 seedlings after γ-IR) (Arabidopsis (endogenous in seedlings))

These are yes or no findings as the source states them, for the method shown. In cells and extracts the contact can be indirect. A yes stands for co-enrichment or nearness to the bait. Other partners may have been found. No binding means not detected with the bait. Tags and fused reporters may be left off the sequences shown.
